Percent effect of library compounds

Protein sequences, listed by entry. Tags and fused reporters are not part of them. Residues count along the entry.
UniProt I6X8D2, whole entry: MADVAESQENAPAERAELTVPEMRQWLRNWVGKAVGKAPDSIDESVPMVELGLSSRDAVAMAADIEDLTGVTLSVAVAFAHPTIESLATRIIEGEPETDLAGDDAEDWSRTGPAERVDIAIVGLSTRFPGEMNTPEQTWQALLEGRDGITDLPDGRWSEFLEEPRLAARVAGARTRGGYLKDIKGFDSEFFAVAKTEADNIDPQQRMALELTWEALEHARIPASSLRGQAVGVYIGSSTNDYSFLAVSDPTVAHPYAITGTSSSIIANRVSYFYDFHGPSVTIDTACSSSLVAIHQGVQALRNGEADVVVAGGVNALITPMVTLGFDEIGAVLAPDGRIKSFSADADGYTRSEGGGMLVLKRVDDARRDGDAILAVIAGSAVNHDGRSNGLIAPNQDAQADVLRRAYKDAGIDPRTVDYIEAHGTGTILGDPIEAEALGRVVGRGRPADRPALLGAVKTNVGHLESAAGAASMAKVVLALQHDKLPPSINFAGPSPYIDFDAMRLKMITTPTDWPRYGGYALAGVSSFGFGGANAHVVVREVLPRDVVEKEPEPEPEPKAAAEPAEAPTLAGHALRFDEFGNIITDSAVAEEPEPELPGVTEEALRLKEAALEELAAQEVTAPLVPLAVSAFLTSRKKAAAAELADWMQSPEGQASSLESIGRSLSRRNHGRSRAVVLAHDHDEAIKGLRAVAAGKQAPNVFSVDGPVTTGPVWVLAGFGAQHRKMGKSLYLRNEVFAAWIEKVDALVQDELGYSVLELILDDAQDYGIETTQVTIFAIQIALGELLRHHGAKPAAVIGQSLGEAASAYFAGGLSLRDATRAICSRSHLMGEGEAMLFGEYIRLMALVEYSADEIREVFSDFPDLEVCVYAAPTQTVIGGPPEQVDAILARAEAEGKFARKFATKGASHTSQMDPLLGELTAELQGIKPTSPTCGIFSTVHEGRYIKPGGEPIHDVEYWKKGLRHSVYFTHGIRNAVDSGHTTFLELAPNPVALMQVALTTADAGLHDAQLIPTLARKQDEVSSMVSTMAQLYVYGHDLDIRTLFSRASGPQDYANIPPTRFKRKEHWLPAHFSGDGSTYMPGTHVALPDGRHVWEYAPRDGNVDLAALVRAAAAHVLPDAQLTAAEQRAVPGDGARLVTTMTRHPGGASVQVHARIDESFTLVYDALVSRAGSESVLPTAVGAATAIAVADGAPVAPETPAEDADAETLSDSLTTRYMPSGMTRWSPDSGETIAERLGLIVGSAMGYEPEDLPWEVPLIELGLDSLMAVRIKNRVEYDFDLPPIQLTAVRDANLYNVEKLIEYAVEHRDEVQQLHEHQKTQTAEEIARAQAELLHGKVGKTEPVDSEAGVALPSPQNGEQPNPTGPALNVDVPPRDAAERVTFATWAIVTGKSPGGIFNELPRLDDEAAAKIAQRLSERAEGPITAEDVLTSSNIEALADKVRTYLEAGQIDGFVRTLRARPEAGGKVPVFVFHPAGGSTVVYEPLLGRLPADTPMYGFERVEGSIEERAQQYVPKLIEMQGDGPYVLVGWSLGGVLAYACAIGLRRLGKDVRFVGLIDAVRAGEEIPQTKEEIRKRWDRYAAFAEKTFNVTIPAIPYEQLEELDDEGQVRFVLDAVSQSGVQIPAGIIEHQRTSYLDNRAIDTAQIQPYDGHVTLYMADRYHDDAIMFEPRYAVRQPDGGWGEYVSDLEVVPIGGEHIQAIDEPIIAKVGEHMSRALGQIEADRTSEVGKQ
UniProt Q8IDJ8, 1-583: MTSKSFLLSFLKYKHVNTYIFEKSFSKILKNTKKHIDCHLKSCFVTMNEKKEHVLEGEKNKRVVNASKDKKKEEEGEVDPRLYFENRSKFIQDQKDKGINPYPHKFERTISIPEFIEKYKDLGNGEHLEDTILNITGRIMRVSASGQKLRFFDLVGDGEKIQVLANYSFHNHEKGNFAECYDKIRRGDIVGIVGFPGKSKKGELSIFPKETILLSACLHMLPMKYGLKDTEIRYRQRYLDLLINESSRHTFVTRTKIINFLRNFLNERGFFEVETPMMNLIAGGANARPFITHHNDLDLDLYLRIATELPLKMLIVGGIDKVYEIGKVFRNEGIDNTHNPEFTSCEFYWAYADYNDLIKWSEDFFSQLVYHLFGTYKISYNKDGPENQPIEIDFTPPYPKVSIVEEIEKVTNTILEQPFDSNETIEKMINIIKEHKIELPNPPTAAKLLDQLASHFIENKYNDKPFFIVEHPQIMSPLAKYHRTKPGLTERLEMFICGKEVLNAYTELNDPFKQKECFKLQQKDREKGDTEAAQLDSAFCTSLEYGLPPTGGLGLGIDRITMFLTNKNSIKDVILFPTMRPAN
UniProt P9WNZ1, whole entry: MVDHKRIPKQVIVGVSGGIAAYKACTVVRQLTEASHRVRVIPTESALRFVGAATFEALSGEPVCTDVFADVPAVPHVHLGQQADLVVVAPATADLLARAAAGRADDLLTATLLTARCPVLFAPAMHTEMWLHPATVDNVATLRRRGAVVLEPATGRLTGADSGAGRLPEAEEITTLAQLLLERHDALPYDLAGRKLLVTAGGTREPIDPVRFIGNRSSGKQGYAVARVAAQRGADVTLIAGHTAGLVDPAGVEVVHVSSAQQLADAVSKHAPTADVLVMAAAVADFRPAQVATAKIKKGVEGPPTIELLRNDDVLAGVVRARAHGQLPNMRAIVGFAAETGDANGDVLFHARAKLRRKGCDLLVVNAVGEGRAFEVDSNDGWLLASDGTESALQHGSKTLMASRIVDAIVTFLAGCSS

The values are deposited in ChEMBL (CHEMBL3988442, “University of Dundee, Small-Polar-MMV Screening Library” (2021)).

Toxoplasma: 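Assay of Toxoplasma gondii numbers, read through their beta-galactosidase reporter with a colour substrate. Concentration: 10 µM. The record gives no direction; the compounds picked for IC50 retests had high values, so higher reads as fewer parasites. About 67,000 compounds were tested under these conditions; 0.38% (about 260) showed 50% or more at least once.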
Pks13 thioesterase: 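Polyketide synthase Pks13, Mycobacterium tuberculosis (UniProt I6X8D2). Enzyme assay of the thioesterase domain of polyketide synthase 13; the read-out is not stated. Tested at 30 µM. Higher reads as stronger inhibition (inferred from which compounds were picked for retests). About 67,000 compounds were tested under these conditions; 0.46% (about 300) showed 50% or more at least once.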
PfKRS1: 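Enzyme assay of the cytosolic lysyl-tRNA synthetase in 384-well plates, read by luminescence. Target: Lysine-tRNA ligase, Plasmodium falciparum 3D7 (UniProt Q8IDJ8). Compounds at 30 µM. Direction is inferred from only a few compounds that gave an IC50; most scored high, so higher reads as stronger inhibition. Size under these conditions: about 69,000 compounds, about 49 of them at 50% or above in at least one test.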
CoaBC: 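Enzyme assay of CoaBC with a phosphate dye (Biomol Green) read at 650 nm. Target: Coenzyme A biosynthesis protein CoaBC, Mycobacterium tuberculosis (UniProt P9WNZ1). Concentration: 30 µM. Higher reads as stronger inhibition, judged from the few compounds that gave an IC50. Most strong results did not repeat in a second test. About 67,000 compounds were tested under these conditions; 0.06% (about 40) showed 50% or more at least once.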

Results are given as percent effect.
How 0% and 100% were set is not recorded. Most values in the screen are low, and negative values occur.
This is an unselected part of the compounds tested.
Two or more numbers in one place are separate tests of the same structure; such repeats can differ widely.
A dash means the value is not listed here; it may have been measured.

| Compound | Toxoplasma | Pks13 thioesterase | PfKRS1 | CoaBC |
|---|---|---|---|---|
| `CCc1nccn1C1CCCN(C(=O)c2cnn3ccc(C)nc23)C1` (centres undefined) | -2.47 | - | 2.866 | 4.152 |
| `Cc1cc(OCC(O)c2nc3c([nH]2)CC(C)(C)CNC3=O)ccc1Cl` (centres undefined) | - | -10.44 | 2.242 | 1.337 |
| `CC(C)(CN1C[C@H](Nc2ncccn2)[C@@H](C2CC2)C1)N1CCOCC1` | 11.67 | -0.6768 | 2.666 | 0 |
| `[H][C@@]12CS(=O)(=O)C[C@]1([H])N(C(=O)c1cc(-c3ccc(C)o3)n[nH]1)CCN2CC` | -25.48 | - | - | - |
| `c1ccc2oc(CN3CCCC(Cn4cncn4)C3)nc2c1` (centres undefined) | 5.397 | 14.17 | 1.249 | 9.838 |
| `COCCOC1CCN(C(C(=O)O)c2c(Cl)cccc2OC)CC1` (centres undefined) | -13.53 | -21.82 | 3.353 | -0.2469 |
| `CC(=O)Nc1nc(C(=O)NCCOc2ccc(C)cc2)cs1` | 12.92 | -7.281 | 2.385 | 5.134 |
| `Cn1cc(CN2C[C@H]3CN(c4cncnc4)C(=O)[C@H]3C2)cn1` | - | -33.09 | 2.771 | 1.142 |
| `CN(CC(F)(F)F)C(=O)C1CSCN1C(=O)OC(C)(C)C` (centres undefined) | -1.642 | -7.09 | 3.141 | -1.066 |
| `O=C(CCc1ccccn1)N1CCCN(C(=O)CC2CCCC2)CC1` | 4.856 | -16.72 | -1.91 | 6.527 |
| `Cc1cnccc1-n1nc(C(C)C)nc1CCc1cnccn1` | 4.452 | -43.86 | 2.733 | - |
| `Cc1nn(C)c(C)c1C(C)NCc1ccc(OC(C)C)cc1` (centres undefined) | -10.11 | -7.708 | 4.094 | -12.91 |
| `COc1ccc(C(C)N2CCC(CNC(C)=O)CC2)cc1Cl` (centres undefined) | 2.949 | -5.509 | -1.397 | 6.4 |
| `CCC(C)Oc1ccccc1CN1Cc2ncccc2C1=O` (centres undefined) | 9.513 | -44.66 | 6.899 | -4.225 |
| `CSCCC(=O)N1CCCN(c2ccccc2C)CC1` | -1.097 | -1.608 | -3.368 | 12.7 |
| `CCOCCC(=O)NC1(c2cccc(Br)c2)CC1` | -0.3793 | -2.322 | 3.152 | 1.923 |
| `CC(C)(C)OC(=O)N1CCN(C(=O)c2sccc2C2CC2)CC1` | -5.118 | -22.31 | 3.726 | 7.311 |
| `CCC(CO)N(C/C(C)=C/c1ccco1)Cc1ccco1` (centres undefined) | 7.393 | -2.586 | 5.345 | 2.033 |
| `CC(NC(=O)CSCC(N)=O)c1ccc(Oc2ccccc2)cc1` (centres undefined) | 16.2 | -23.68 | 2.785 | 24.62 and 13.76 |
| `COc1cccc(CN2CCC3(CCN(C(=O)C4CC=CC4)CC3)C2)c1.O=C(O)C(F)(F)F` | 2.956 | - | - | - |
| `COCCN(Cc1ccc(F)cc1C#N)CC(F)(F)F` | 0.4813 | -15.74 | 6.677 | -10.02 |
| `CC(=O)Nc1nc(CN2CCOC(Cn3cc(C)cn3)C2)cs1` (centres undefined) | 14.94 | -12.82 | 6.501 | -3.333 |
| `Cc1ccc(S(=O)(=O)N2CCN(C)C3(CCC(=O)N(C)CC3)C2)s1` (centres undefined) | -0.7704 | -34.16 | 1.721 | 2.475 |
| `O=C(C1CC1)N1CCC(c2nc(O)c3c(n2)CCN(C2CCCC2)C3)C1` (centres undefined) | 1.608 | -26.24 | 1.728 | 9.524 and 26.68 |
| `Cc1n[nH]c(=O)c(C(=O)N2CCN(CCc3cccs3)CC2)c1C` | 7.199 | -12.52 | 0.5823 | 1.316 |
| `Cc1nonc1OCCNc1ncnc2sc3c(c12)CCNC3` | 0.9735 | -15.35 | 6.151 | 3.659 |
| `CN1CCN(Cc2cn3c(n2)CNCC3)CC1.Cl.Cl.Cl` | 10.29 | - | - | - |
| `COc1ccc(CN2CCC(CO)(Cc3ccc(Cl)cc3)CC2)c(O)c1` | 11.13 | -34.03 | 5.657 | -16.36 |
| `Cn1ccnc1CN1CCN2C[C@H](Oc3cccc(F)c3)C[C@H]2C1` | - | 23.57 | 0.2597 | -4.886 |
| `O=C(c1cccnc1)N1Cc2nccn2CC(COc2cccnc2)C1` (centres undefined) | - | -13.24 | 2.948 | -12.7 |
| `Cc1ccc(OCC(=O)NCc2sccc2C)nc1` | -1.839 | -10.06 | 4.179 | 0.3636 |
| `[H][C@@]12CCN(S(=O)(=O)c3ccccc3)C[C@]1(c1nnc(C)o1)CCO2` | 1.111 | - | - | - |
| `CCOC1COC2(CCN(Cc3cccc(F)c3)CC2)C1.O=C(O)C(F)(F)F` (centres undefined) | 1.901 | - | - | - |
| `Cc1cnccc1-c1cnn(CCNC(=O)c2cccnc2)c1C1CC1` | - | -2.248 | 0.9764 | 1.865 |
| `Cc1nn(C(C)C)c2cnn(CC(=O)N3CCN(C)CC3)c12` | 4.637 | -15.67 | 0.4816 | -1.636 |
| `Cc1ccnc(CNC(=O)C2CC(=O)N(CCN(C)C)C2)c1` (centres undefined) | 13.34 | -6.701 | 6.572 | 4.722 |
| `CNC(=O)[C@H]1C[C@@H]2CCN(CCc3ccccc3)C[C@@H]2O1` | - | -652.7 | 2.863 | -0.618 |
| `CCN(CC)C(CNCc1ccc(OC)c(F)c1)c1ccco1` (centres undefined) | -1.157 | -26.58 | -1.249 | 0.8464 |
| `OCC1CCCN1c1cc(NCCc2ccsc2)ncn1` (centres undefined) | -12.22 | 1.943 | 12.53 | 8.228 |
| `CN(C)S(=O)(=O)N1C[C@@H]2CC[C@H](C1)N(C/C=C/c1ccc(F)cc1)C2` | - | -0.9374 | 4.004 | -6.11 |
| `CC(C(=O)NCCN1CCCCCC1)n1cncn1` (centres undefined) | -1.318 | -9.489 | 3.208 | -6.177 |
| `OCC1(CCOc2ccccc2)CCN(c2ccc(Cl)cn2)CC1` | -24.73 | 43.39 | 3.009 | 7.543 |
| `Nc1ccnc(N2C[C@@H]3CC[C@H](C2)N(CC2CCC2)C3=O)n1` | - | -0.1537 | 2.774 | -1.356 |
| `Cn1nccc1-c1nnn2c1COCC(CNC1CCOCC1)C2` (centres undefined) | - | -9.21 | 6.025 | 0.4938 |
| `CC1N(c2cnn(C)c2)C(=O)COC12CCN(c1ccccn1)CC2.O=C(O)C(F)(F)F` (centres undefined) | -1.829 | - | - | - |
| `CCc1nc(C)ncc1C(=O)N1CC(C)CN(C)c2ccccc21` (centres undefined) | -4.005 | -28.27 | 2.138 | 0.2481 |
| `Cc1cnn(CC2CCCN2CC(=O)Nc2cc(C(C)(C)C)no2)c1` (centres undefined) | -0.7786 | -12.93 | 4.905 | 0.527 |
| `COC(=O)C(C)Sc1nnnn1C1CCOCC1` (centres undefined) | - | -9.695 | 0.294 | -1.845 |
| `CN(C)C(=O)c1cc(-c2cnc(N)nc2)nc2cc(F)ccc12` | -6.62 | -19.1 | 3.917 | -9.664 |
| `CN1C(=O)CC[C@@H]2[C@H]1CCN2S(=O)(=O)Cc1ccccc1` | - | - | -12.38 | -4.316 |
| `CCn1ccnc1CN1CCN(CC(O)CN2CCOCC2)CC1` (centres undefined) | -10.13 | -11.78 | 1.948 | 0.5115 |

Some entries from above, unchanged:

- Cn1cc(CN2C[C@H]3CN(c4cncnc4)C(=O)[C@H]3C2)cn1 | Pks13 thioesterase: -33.09%; PfKRS1: 2.771%; CoaBC: 1.142%
- COc1cccc(CN2CCC3(CCN(C(=O)C4CC=CC4)CC3)C2)c1.O=C(O)C(F)(F)F | Toxoplasma: 2.956%
- CSCCC(=O)N1CCCN(c2ccccc2C)CC1 | Toxoplasma: -1.097%; Pks13 thioesterase: -1.608%; PfKRS1: -3.368%; CoaBC: 12.7%